Measurements as given in PubChem BioAssay AID2685 (National Center for Advancing Translational Sciences (NCATS), 2010).
The other results are listed elsewhere or left out. Shown are side measurements of this screen, not its main read-out; they come without a call. Most of these compounds were active or inconclusive in the main read-out, so they are no random draw. Words in brackets tell the shape of the fitted curve; partial curves, single points and poor fits give uncertain potencies.

Assay: qHTS Assay for Lipid Storage Modulators in Drosophila S3 Cells;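 on cell number change: cells counted by Cell Tracker Red CMTPX staining in the red channel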
Conditions: BODIPY lipid droplet fluorescence, 18-24 h; for cell number change: measured here: cell count max response, cells fed with added oleic acid
Outline: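 Drosophila S3 cells got compounds at several concentrations plus oleic acid (400 uM solution). Laser-scanning cytometry with 488 nm excitation read lipid droplets at 500-530 nm and cells at 575-640 nm. Percent activity was relative to 20 uM Triacsin C.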

[1] = measured here: lipid fluorescence (Fed channel) AC50, cells fed with added oleic acid
[2] = measured here: cell number channel AC50, cells fed with added oleic acid

Structure (SMILES) | cell number change [%] | AC50 [1] | AC50 [2]
COc1ccc(CC(NC(C)=O)C(=O)NC2CCN(C(=O)c3ccc(Cl)cc3)CC2)cc1 (stereo not given) | -6.05 |  | 
CC1CCCN(C(=O)C2CCN(c3nc(-c4ccccc4)nc4c3CCC4)CC2)C1 (stereo not given) | 0.867 | 1.46 µM [rising, partial curve] | 
COc1ccc(S(=O)(=O)NCC2CCCN(C(=O)CNC(C)=O)C2)cc1 (stereo not given) | 5.85 | 0.146 µM [falling, full curve] | 
CC(C)CNc1oc(-c2ccc(F)cc2)nc1C#N |  | 0.58 µM [falling, single point] | 
CCOC(=O)c1c(-c2ccc(C)cc2)csc1NC(=O)c1cc2ccccc2oc1=O | -22.8 | 14.6 µM [falling, partial curve] | 
COc1cc(-c2noc(C)c2C(=O)NCCO)cc(OC)c1OC | 5.18 |  | 
COc1cc(C2Nc3cccc4cccc(c34)N2)ccc1OC(C)=O | -4.01 | 4.11 µM [rising, full curve, poor fit] | 
COc1ccc(C(=O)N(Cc2cccs2)C2CCS(=O)(=O)C2)cc1 (stereo not given) | 0.901 | 0.82 µM [rising, full curve] | 
COc1cc(NC(=O)COc2ccccc2[N+](=O)[O-])ccc1NC(=O)c1ccco1 | 38.9 |  | 20.6 µM [rising, single point]
O=C(CS(=O)(=O)c1ccccc1)c1cc2cc(F)ccc2oc1=O | -13 | 6.51 µM [falling, single point] | 
CC(C)C(C(=O)NCC1CCCO1)N(C(=O)CNS(=O)(=O)c1ccc(F)cc1)c1ccccc1 (stereo not given) | -30.8 |  | 29.1 µM [falling, single point]
CCOc1cc(CN2CCC(CO)(Cc3cccc(C(F)(F)F)c3)CC2)ccc1OC | 13.4 | 0.231 µM [rising, full curve] | 
C[n+]1ccc(/C=C/c2c[nH]c3ccc(F)cc23)cc1 | -84.7 | 11.6 µM [falling, single point] | 20.6 µM [falling, single point]
C/C(=N\NC(=O)c1c(Cl)c(C)nn1C)c1ccc(NC(=O)C2CCC2)cc1 | -27.7 | 2.91 µM [falling, full curve, poor fit] | 
CCOc1ccccc1NC(=O)c1ccccc1-c1ccccc1 | -15.2 | 0.58 µM [falling, single point] | 
COC(C(=O)Nc1ccc(Cl)cc1C)c1ccccc1 (stereo not given) | 7.58 | 0.231 µM [rising, full curve, poor fit] | 
CC(C)(c1ccccc1)c1ccc(OCCCNCCO)cc1 | -14.2 | 0.731 µM [falling, partial curve] | 0.00461 µM [falling, full curve, poor fit]
O=C(CSCc1ccc(Br)cc1)NCCc1ccccc1 | -0.246 | 7.31 µM [rising, partial curve, poor fit] | 
COc1ccc(CCNC(=O)CSc2nnc3ccc(-c4ccncc4)nn23)cc1 | 10.5 | 3.26 µM [rising, single point] | 
Cc1ccc(S(=O)(=O)N(CC(O)CN2CCCCC2)c2ccccc2)cc1 (stereo not given) | -5.89 |  | 
Cc1ccc(S(=O)(=O)N(C)C)cc1NC(=O)C1Cc2ccccc2CN1C(=O)c1ccco1 (stereo not given) | -14.3 |  | 0.0517 µM [falling, full curve, poor fit]

Structure (SMILES) | cell number change [%] | AC50 [1] | AC50 [2]
Cc1ccc(S(=O)(=O)N2CCOCC2)cc1C(=O)Nc1ccccc1N1CCCC1 | 24 | 16.4 µM [rising, partial curve, poor fit] | 
O=C(Nc1ccon1)c1ccccc1F |  | 32.6 µM [falling, partial curve, poor fit] | 
CCn1ccc(C(=O)N2CCOCC2)n1 | -14.6 | 0.731 µM [falling, full curve, poor fit] | 
C=CCn1c(O)c(N=NC(=S)Nc2cccc(OC)c2)c2ccccc21 | -82.1 | 14.6 µM [falling, partial curve] | 14.6 µM [falling, partial curve]
O=C(c1cnc2ccccn2c1=O)N1CCc2ccccc21 | 10.9 | 9.2 µM [falling, partial curve] | 
CC1=NN(C(N)=S)C(=O)C1N=Nc1ccc(Cl)cc1 (stereo not given) | -41.5 | 7.31 µM [falling, partial curve] | 10.3 µM [falling, partial curve]
COc1ccc([C@@H]2CC=C(C(=O)O)[C@H](c3cccc(Cl)c3)N2S(=O)(=O)c2ccc(C)cc2)cc1OC | -4.81 | 0.116 µM [falling, full curve, poor fit] | 
Cc1nn(C(=O)c2cccs2)c(C)c1CN1C(=O)c2ccccc2C1=O | 8.05 | 1.84 µM [rising, partial curve] | 
COc1cccc(-c2nc(CS(=O)(=O)CC(=O)N3CCc4ccccc4C3)c(C)o2)c1 | 17.9 | 1.84 µM [rising, full curve] | 1.64 µM [rising, single point]
CCOC(=O)N1CCC(Nc2c(NCCN3CCN(c4cccc(Cl)c4)CC3)c(=O)c2=O)CC1 | 3.5 |  | 
CC(C)c1nc(SCC(=O)NCc2ccccc2)n[nH]1 | 5.97 |  | 
CCC(C(=O)NC(C)(C)C)N(Cc1ccc(F)cc1)C(=O)c1snc(C(N)=O)c1N (stereo not given) | -27.7 |  | 
Cc1cc(NC(=O)c2cc(-c3ccc(C)c(C)c3)nc3ccccc23)no1 | 32.6 | 16.4 µM [rising, partial curve] | 9.2 µM [rising, single point]
CCC1CCCCN1C(=O)CCCOc1ccccc1 (stereo not given) | -1.43 | 29.1 µM [falling, single point] | 
COCCn1c(SCC(=O)NCc2ccc(F)cc2)nc2ccccc21 | 37.5 |  | 
CC(C)Cc1nnc(NC(=O)CCN2C(=O)c3ccccc3C2=O)s1 | 10.9 |  | 
CCn1cc2nc(SCC(=O)Nc3ccccc3F)n(Cc3ccccc3)c(=O)c2n1 | -23.6 |  | 
COc1ccc(C2NC(=S)NC3=C2CCc2ccccc23)cc1OC (stereo not given) | -37.5 | 0.13 µM [falling, full curve, poor fit] | 0.0058 µM [falling, full curve, poor fit]
Cc1c(C(=O)Nc2ccc(Nc3ccccc3)cc2)cccc1[N+](=O)[O-] | -56.9 | 1.64 µM [falling, partial curve] | 23.1 µM [falling, single point]
CCN(CC)C(=O)COc1ccc(/C(C)=N/NC(=O)c2ccccc2-n2cccc2)cc1 | -14.9 |  | 
N#CCOC(=O)[C@H](Cc1ccccc1)N1C(=O)c2ccccc2C1=O | 3.55 |  | 

Structure (SMILES) | cell number change [%] | AC50 [1] | AC50 [2]
Cc1cc(C)cc(C(=O)NCC(=O)OCC(=O)c2c(N)n(C)c(=O)n(C)c2=O)c1 | -35.1 | 11.6 µM [falling, partial curve] | 29.1 µM [falling, single point]
COc1ccc2occ(C(=O)c3coc4ccc(O)c(CN(C)C)c34)c2c1 | -23.5 |  | 
COc1ccc(N2CCN(C(C)C(=O)N3CCc4ccccc43)CC2)cc1 (stereo not given) | 21 | 0.206 µM [rising, single point] | 3.26 µM [rising, partial curve, poor fit]
CC(NC(=O)COC(=O)/C=C/c1ccc(Cl)cc1)c1ccccc1 (stereo not given) |  | 0.58 µM [falling, single point] | 
CCC(=O)c1ccc(OCc2ccc(C(=O)c3ccccc3)cc2)cc1 | -31.4 |  | 29.1 µM [falling, single point]
COc1cc(C(=O)Cc2nc3ccccc3n2C)cc(OC)c1OC | 22.6 | 29.1 µM [rising, single point] | 
Cc1ccc(NC(=O)NC(=O)N(C(C)C)S(=O)(=O)c2ccc(C)cc2)cc1 | -15.4 | 0.82 µM [rising, single point] | 
COCCCNC(=O)c1ccc2c(=O)n(Cc3ccc(Cl)cc3)c(=S)[nH]c2c1 |  | 0.651 µM [rising, partial curve, poor fit] | 
COc1ccc(C2=CC3=C(Br)C(=O)C(C)(OC(=O)C4CCCC4)C(=O)C3=CO2)cc1 (stereo not given) | -28.4 | 29.1 µM [falling, partial curve, poor fit] | 
Cc1ccc[n+](-c2nc([O-])sc2C=O)c1 | -47 |  | 
CCCCC(NC(C)=O)c1nc2ccccc2[nH]1 (stereo not given) | -37.2 | 29.1 µM [falling, partial curve] | 32.6 µM [falling, partial curve, poor fit]
COc1ccc(NS(=O)(=O)c2c(F)cc(F)c(Cl)c2F)cc1S(=O)(=O)N1CCCCC1 | 123 |  | 
c1csc(-c2csc3nc(CN4CCOCC4)nc(NCc4ccc5c(c4)OCO5)c23)c1 | -9.5 | 0.103 µM [rising, full curve, poor fit] | 0.116 µM [rising, full curve, poor fit]
COc1cc(C(=O)OCc2cc(=O)c(O)co2)ccc1OC(F)F | 11.7 |  | 
Cn1c(CNC(=O)c2ccccc2F)nnc1SCC(=O)Nc1nncs1 | -3.97 |  | 
CCOC(=O)c1c(NC(=O)CSc2nnc(Cc3csc(N)n3)n2C)sc(C)c1C | -4.92 |  | 
O=C(CN1CCOCC1)N/N=C/c1ccccc1 | 121 |  | 
CC(=O)N1N=C(c2ccco2)CC1c1ccc(C)cc1 (stereo not given) | -12.6 | 0.366 µM [falling, partial curve, poor fit] | 0.651 µM [falling, single point]
O=C(c1ccc2c(c1)OCO2)N(Cc1ccco1)C1(C(=O)NC2CCCCC2)CCCCC1 | 8.25 | 0.00461 µM [rising, full curve, poor fit] | 
Cc1c(Cl)ccc(S(=O)(=O)NCCN2CCOCC2)c1Cl | 4.66 | 3.26 µM [rising, partial curve] | 

Arranged by heavy-atom count (falling): part of the list above
Structure (SMILES) | cell number change [%] | AC50 [1] | AC50 [2]
CC(C)C(C(=O)NCC1CCCO1)N(C(=O)CNS(=O)(=O)c1ccc(F)cc1)c1ccccc1 (stereo not given) | -30.8 |  | 29.1 µM [falling, single point]
CCn1cc2nc(SCC(=O)Nc3ccccc3F)n(Cc3ccccc3)c(=O)c2n1 | -23.6 |  | 
CCC(C(=O)NC(C)(C)C)N(Cc1ccc(F)cc1)C(=O)c1snc(C(N)=O)c1N (stereo not given) | -27.7 |  | 
COc1cc(-c2noc(C)c2C(=O)NCCO)cc(OC)c1OC | 5.18 |  | 
CC(C)c1nc(SCC(=O)NCc2ccccc2)n[nH]1 | 5.97 |  | 
